The target of assay [1] is RabGDI. The experiment in a line: immunoprecipitation with anti-GFP antibodies, Western blot. In general terms: In western blotting, separated proteins are transferred to a membrane and probed.
Assay [2] addresses RabGDI. The experiment in a line: co-immunoprecipitation of GFP-Rab13 with GFP-Trap beads from MDA-MB-231 lysates, Western blot.

Results are given in words; binding and its absence hold for the method and conditions named. Binding calls can cover weak binding; strength is not graded here. Tags and fused reporters may be left off the sequences shown. For some assays here: Binding seen in cells or lysates may run through a third protein.

B1: GFP-Rab13 (N-terminally GFP-tagged human Rab13) (other, UniProt P51153 1-203, looked up, not shown: large carriers)
chain: MAKAYDHLFKLLLIGDSGVGKTCLIIRFAEDNFNNTYISTIGIDFKIRTVDIEGKKIKLQVWDTAGQERFKTITTAYYRGAMGIILVYDITDEKSFENIQNWMKSIKENASAGVERLLLGNKCDMEAKRKVQKEQADKLAREHGIRFFETSAKSSMNVDEAFSSLARDILLKSGGRRSGNGNKPPSTDLKTCDKKNTNKCSLG
notes: Stably expressed in MDA-MB-231 cells from constructs with the wild type or the delta-PMO Rab13 3'UTR; the encoded protein is the same; Assayed from cell lysates; also called exogenous GFP-Rab13; exogenous Rab13
For the molecule B1, the binding entry in the assay with RabGDI [1] and with RabGDI [2] was “binds” in each case.

These data come from patent US20230057461A1 (US Dept. of Health and Human Services, published 2023).
